Measured values published in PubChem BioAssay AID2685 (National Center for Advancing Translational Sciences (NCATS), 2010).
In all, about 320,000 compounds went through this assay and about 2,100 (0.66%) were called active. Calls come from the whole dose curve; as a rule, active = well fitted inhibition curve with a large enough effect in the signal ratio, with a control signal flat (not every such curve was filed as active); inconclusive = small, poorly fitted or top-dose-only effect, or effect the other way, or a change in a side signal; inactive = flat fitted curve, though single readings scatter; the % refers to the signal ratio. The inconclusive results got no clear call from the source. Potencies of inconclusive entries are doubtful fits and often do not repeat. Where a SMILES comes first, the peptide text is derived from it. The star is where a group is joined. Boc = CC(C)(C)OC(=O)*; OtBu = CC(C)(C)O*

test: qHTS Assay for Lipid Storage Modulators in Drosophila S3 Cells; conditions: BODIPY lipid droplet fluorescence, 18-24 h, cells fed with added oleic acid; lipid storage change, negative = inhibition: at 46.1 µM (top of the series) unless noted
Procedure, shortened: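 Drosophila S3 cells got compounds at several concentrations plus oleic acid (400 uM solution). Laser-scanning cytometry with 488 nm excitation read lipid droplets at 500-530 nm and cells at 575-640 nm. Percent activity was relative to 20 uM Triacsin C.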
% is set by controls: 0 for no effect and ±100 for the full control effect; potency is the fitted concentration of half-maximal effect.

Lipid storage change, negative = inhibition, inconclusive:
CC(OC(=O)CCN1C(=O)C2CC=CCC2C1=O)C(=O)Nc1cccc(Cl)c1 (stereo unspecified), CNC(=O)c1c(NC(=O)CCS(=O)(=O)c2ccc(C)cc2)sc2c1CCN(C(=O)OC)C2 -10.5%, O=C(CCCn1nnnc1CN1CCOCC1)N1CCN(c2ccccc2F)CC1 -6.79%, Cc1nn(Cc2ccccc2)c2sc(C(=O)N3CCN(Cc4ccc5c(c4)OCO5)CC3)cc12 8.04%, CC1CC(C)(C)CC2(C1)NC(=O)N(CC(=O)OCc1ccc(Br)cc1)C2=O (stereo unspecified) -35.1%, CSc1nnc(Cc2ccc3c(c2)OCO3)o1 10.9%, O=[N+]([O-])c1ccc(/C=N/N/C(=N/c2ccccn2)c2ccccn2)cc1 21.3%, CSc1nc(N(C)NC(=O)c2ccc(Cl)cc2)c2ccccc2n1 22.3%, COc1ccccc1NC(=S)NCc1ccccc1 -54.2%, CCCNC(=O)Cn1cccc1C(=O)c1ccccc1 1.12%, O=C(CN1CCN(S(=O)(=O)c2ccc3c(c2)OCCO3)CC1)Nc1cccc(F)c1, COc1ccc(-c2csc(NC(=O)c3ccc(S(C)(=O)=O)cc3)n2)cc1 1.16% [at 9.22 µM], CC(=O)Nc1ccc(S(=O)(=O)N2CCN(c3ncccn3)CC2)cc1 -9.88%, CN1C(=O)/C(=C/c2ccccc2OCc2ccc(C(=O)O)cc2)NC1=S -58%, COc1ccccc1C(CNC(=O)C(CCSC)NS(=O)(=O)c1ccccc1F)N1CCCC1 (stereo unspecified) 13.6%, COC(=O)C1=C(C)NC(=S)NC1c1ccc(OCC(=O)N2CCCCC2)c(OC)c1 (stereo unspecified) -24.6%, CCOc1ccc(NC(=O)c2ccc(NC(=O)c3cn4c5c(c(N6CCN(C)CC6)c(F)cc5c3=O)OCC4C)cc2)cc1 (stereo unspecified) 7.9%, CC(C)(C)NC(=O)C(c1cccs1)N(C(=O)c1csnn1)c1cccc(F)c1 (stereo unspecified) -10.3%, Cc1ccccc1C(=O)O/N=C(\N)Cc1cccs1 43.1%, Cc1cc(-c2ccccc2)nc2cc(C(N)=O)nn12 11.6%, COC(=O)C(Cc1ccc(O)cc1)NC(=O)C(CC(=O)OC(C)(C)C)NC(=O)OC(C)(C)C (stereo unspecified) (Boc-Asp(OtBu)-Tyr-OMe; configuration not given here) -11.3%, O=C(CSc1nc2ccc([N+](=O)[O-])cc2s1)NCC1CCCO1 (stereo unspecified) 143%, NS(=O)(=O)c1ccc2nc(-c3ccccc3)c(-c3ccccc3)nc2c1 65.6%, CCCn1nc(NC(=O)C(C)C)c2cc3cc(OC)ccc3nc21 22.6%, COc1cc(/C=N/NC(=S)NC(C)C)ccc1OCC(=O)Nc1c(C)cc(C)cc1C 17.4%, O=C(CCCN1C(=O)c2cccc3cccc(c23)C1=O)N1CCN(Cc2ccc3c(c2)OCO3)CC1 104%, O=C1Nc2ccccc2N(O)N1c1cc(-c2ccccc2)[nH]n1 19.5%, CN(C)c1ccc(C(C#N)c2ccccc2)nn1 (stereo unspecified) 6.31%

Potency, inconclusive:
COc1ccc(OCC(=O)Nc2cc(NC(=O)c3ccco3)ccc2OC)cc1 6.51 µM [activator, single point], COc1ccccc1-c1nnc(Sc2nc([N+](=O)[O-])nn2C)o1 0.731 µM [falling, full curve], COc1ccc(S(=O)(=O)/C(C#N)=C/Nc2cccc(OC)c2)cc1 11.6 µM [falling, single point], COc1ccc(NS(=O)(=O)c2c(C)n(C)c(=O)n(C)c2=O)cc1 0.13 µM [activator, full curve, poor fit], COc1cc2cc(CN(Cc3cccs3)C(=S)Nc3cccc(C)c3)c(=O)[nH]c2cc1OC 2.59 µM [activator, partial curve], Cc1cccc(C)c1NC(=O)/C(C#N)=C/c1ccsc1 18.4 µM [falling, single point], Cc1ccc(C(C)C)c(OCCCn2ccnc2C)c1 29.1 µM [activator, single point], CC(C)(C)OC(=O)N1CCN(C(=O)c2nc[nH]c2C(=O)N2CCN(C(=O)OC(C)(C)C)CC2)CC1 6.51 µM [activator, single point], NCC(O)CN(c1ccccc1)c1ccccc1 (stereo unspecified) 32.6 µM [falling, single point], CN(C)c1ccc(CN2CCCCC2)cc1 14.6 µM [falling, single point], CC(Sc1nnc(COc2ccc(Cl)cc2)n1Cc1ccco1)C(=O)N1CCNC1=O (stereo unspecified) 29.1 µM [activator, single point], COc1cc(CC(=O)NC(c2ccccc2)c2ccccc2)cc(OC)c1OC 1.3 µM [activator, partial curve], Clc1ccc(-c2c[n+](Cc3ccc(Br)cc3)c3n2CCCCC3)cc1 29.1 µM [falling, single point], CCn1cc(C2C3=C(CC(C)(C)CC3=O)N(c3ccccc3)C3=C2C(=O)CC(C)(C)C3)c(C)n1 0.092 µM [falling, full curve, poor fit], COc1ccc(CNS(=O)(=O)c2cc3c(cc2Cl)NC(=O)CO3)cc1 0.0041 µM [activator, full curve, poor fit], Cc1sc(NC(=O)COc2ccccc2)c(C#N)c1-c1ccccc1 29.1 µM [activator, single point], O=C(N/N=C/c1ccc(-c2ccccc2[N+](=O)[O-])o1)c1cccnc1 0.13 µM [rising, full curve], O=C1C2C3C=CC(C3)C2C(=O)N1c1cccc(-c2nc3ccccc3o2)c1 (stereo unspecified) 0.731 µM [activator, partial curve]
